Measured values taken from PubChem BioAssay AID248 (DTP/NCI, 2004).
The list is a part of this screen's results and no random one: it gathers tests that were run many times, whatever their T/C, doses with no T/C, and many T/C values between a quarter and a half above the control. Further doses and runs are listed elsewhere. T/C is the treated group as % of the vehicle group. Some entries give survivors of the animals treated and no T/C: the source holds a T/C of zero for them, seemingly a mark for toxic or unscored doses. Some survivor counts are full or nearly so, which does not show that the dose was tolerated: survival well below the control is almost never listed, so the zero probably covers shortened survival too. Survivors were counted at the toxicity check, usually on the fifth day, unless a day is given; later deaths do not show. Schedule codes are those of the source, read here as Q, the interval in days (D) or hours (H), X, the number of doses. Some entries were tested several times; their values stand side by side, smallest first. Some schedules carry Z or #; the key to these is not given. Where survival is the endpoint, this PubChem deposit counts one and a half times the control or more as active, and values a quarter to a half above the control carry no call in these data; other NCI protocols may use other cut-offs. Some T/C values carry the count of animals alive at the toxicity check (mostly the fifth day); without a count, all were alive then.

Tested on: L1210 leukemia ip in BDF1 mice, survival T/C
Assay: NCI In Vivo Anticancer Drug Screen. Data for tumor model L1210 Leukemia (intraperitoneal) in B6D2F1 (BDF1) mice
Settings: T/C endpoint: mean survival time, higher T/C = longer survival
[1] = dose: 400.0 mg/kg/injection, schedule: Q01DX009 (ip), vehicle: saline with Tween-80
[2] = dose: 400.0 mg/kg/injection, schedule: Q01DX009 (ip), vehicle: Klucel (hydroxypropylcellulose) (HPC)
[3] = dose: 400.0 mg/kg/injection, schedule: Q01DX009 (ip), vehicle: saline
[4] = dose: 400.0 mg/kg/injection, schedule: Q04DX003 (ip), vehicle: saline
[5] = dose: 300.0 mg/kg/injection, schedule: Q01DX001 (ip), vehicle: saline
[6] = dose: 250.0 mg/kg/injection, schedule: Q01DX Z (ip), vehicle: carboxymethylcellulose (CMC)
[7] = dose: 25.0 mg/kg/injection, schedule: Q01DX009 (ip), vehicle: saline
[8] = dose: 50.0 mg/kg/injection, schedule: Q01DX009 (ip), vehicle: saline
[9] = dose: 100.0 mg/kg/injection, schedule: Q01DX009 (ip), vehicle: saline
[10] = dose: 100.0 mg/kg/injection, schedule: Q04DX003 (ip), vehicle: saline
[11] = dose: 200.0 mg/kg/injection, schedule: Q01DX009 (ip), vehicle: saline
[12] = dose: 200.0 mg/kg/injection, schedule: Q04DX003 (ip), vehicle: saline
[13] = dose: 50.0 mg/kg/injection, schedule: Q01DX001 (ip), vehicle: saline
[14] = dose: 100.0 mg/kg/injection, schedule: Q01DX001 (ip), vehicle: saline
[15] = dose: 200.0 mg/kg/injection, schedule: Q01DX001 (ip), vehicle: saline
[16] = dose: 400.0 mg/kg/injection, schedule: Q01DX001 (ip), vehicle: saline
[17] = dose: 100.0 mg/kg/injection, schedule: Q01DX009 (ip), vehicle: Klucel (hydroxypropylcellulose) (HPC)

For `CCOC(=O)c1ccc(NC(=O)Nc2ccc(OC)cc2OC)cc1`, the T/C (dose: 100.0 mg/kg/injection, schedule: Q01DX009 (ip), vehicle: saline with Tween-80, evaluated on day 20) was 86, 87, 89 % of control, the T/C (dose: 100.0 mg/kg/injection, schedule: Q01DX009 (ip), vehicle: saline with Tween-80, evaluated on day 30) was 87 and 95 % of control and the survivor count (dose: 100.0 mg/kg/injection, schedule: Q01DX009 (ip), vehicle: saline with Tween-80) was 6 of 6. The survivor count (dose: 100.0 mg/kg/injection, schedule: Q04DX003 (ip), vehicle: saline with Tween-80) was 6 of 6, the survivor count (dose: 200.0 mg/kg/injection, schedule: Q01DX009 (ip), vehicle: saline with Tween-80) was 3 of 3 and 6 of 6 and the survivor count (dose: 200.0 mg/kg/injection, schedule: Q04DX003 (ip), vehicle: saline with Tween-80) was 6 of 6. The T/C [1] was 90 [5 of 6 alive] and 100 % of control [4 of 6 alive], the survivor count [1] was 3 of 3 and the survivor count (dose: 400.0 mg/kg/injection, schedule: Q04DX003 (ip), vehicle: saline with Tween-80) was 6 of 6.
`CC(C)=CCN1CCC2(C)c3cc(O)ccc3CC1C2C` (stereo unspecified) was tested, and the survivor count [2] was 1 of 6.
In the case of `CCN(CC)C1CCC(NC(C)=O)CC1` (stereo unspecified), the survivor count [3] is reported as 3 of 6 and the survivor count [4] is reported as 4 of 6.
`CC(C)CCCC(C)C1CCC2C3CC=C4CC(=O)CCC4(C)C3CCC12C` (stereo unspecified) was tested, and the survivor count (dose: 200.0 mg/kg/injection, schedule: Q04DX002 (ip), vehicle: saline with Tween-80) was 3 of 3.
For `ONC12CCCCC1(Cl)CCCC2` (stereo unspecified), the survivor count (dose: 75.0 mg/kg/injection, schedule: Q01DX001 (ip), vehicle: saline) was 0 of 6 and the survivor count [5] was 0 of 6.
With `O=C(Nc1ccc(Cl)c(Cl)c1)OCCCl` the survivor count [5] was 3 of 6.
With `O=C(NCCCl)Nc1ccc2c(c1)CCC2` the survivor count (dose: 400.0 mg/kg/injection, schedule: Q04DX003 (ip), vehicle: Klucel (hydroxypropylcellulose) (HPC)) was 6 of 6.
For `O=C(NCCCCCCCCCCNC(=O)Nc1cccc(C2=NCCN2)c1)Nc1cccc(C2=NCCN2)c1`, the survivor count (dose: 40.0 mg/kg/injection, schedule: Q01DX Z (ip), vehicle: water) was 0 of 6 and the survivor count (dose: 80.0 mg/kg/injection, schedule: Q01DX Z (ip), vehicle: water) was 0 of 6.
With `C=C(NC(C)=O)C(O)c1ccc([N+](=O)[O-])cc1` (stereo unspecified) the survivor count (dose: 50.0 mg/kg/injection, schedule: Q01DX001 (ip), vehicle: carboxymethylcellulose (CMC)) was 2 of 4.
In the case of `CN(N=O)C(=O)NCCNC(=O)N(C)N=O`, the T/C (dose: 25.0 mg/kg/injection, schedule: Q01DX Z (ip), vehicle: carboxymethylcellulose (CMC)) is reported as 135 % of control, the T/C (dose: 50.0 mg/kg/injection, schedule: Q01DX Z (ip), vehicle: carboxymethylcellulose (CMC)) is reported as 132 % of control and the T/C (dose: 100.0 mg/kg/injection, schedule: Q01DX Z (ip), vehicle: carboxymethylcellulose (CMC)) is reported as 125 % of control. The survivor count (dose: 200.0 mg/kg/injection, schedule: Q01DX Z (ip), vehicle: carboxymethylcellulose (CMC)) was 5 of 6, the survivor count [6] was 5 of 6 and the survivor count (dose: 300.0 mg/kg/injection, schedule: Q01DX Z (ip), vehicle: carboxymethylcellulose (CMC)) was 4 of 6.
`c1ccc2c(c1)C1c3cccc[n+]3C2C2C1CC1C3c4ccccc4C(C12)[n+]1ccccc13` (stereo unspecified) was tested, and the survivor count [7] was 1 of 6 and 2 of 6, the survivor count [8] was 0 of 6 and the survivor count [9] was 0 of 6. The survivor count [10] was 0 of 6, the survivor count [11] was 0 of 6 and the survivor count [12] was 0 of 6. The survivor count [3] was 0 of 6 and the survivor count [4] was 0 of 6.
With `O=[N+]([O-])c1ccc(NCCO)c([N+](=O)[O-])c1` the survivor count [1] was 2 of 6.
For `Nc1nc2ncc(=O)[nH]c2c(=O)[nH]1`, the survivor count [3] was 0 of 6.
`O=c1[nH]c2ccccc2n1C1CCN(CCCS(=O)(=O)c2ccccc2)CC1` was tested, and the survivor count (dose: 100.0 mg/kg/injection, schedule: Q04DX003 (ip), vehicle: gum acacia) was 0 of 6.
With `CCCC[N+](C)(CCCC)CCCC` the survivor count (dose: 150.0 mg/kg/injection, schedule: Q01DX001 (ip), vehicle: saline) was 1 of 6 and the survivor count [5] was 0 of 6.
For `COc1ccccc1N1C(N)=NC(N)=NC1(C)C`, the survivor count [7] was 6 of 6, the survivor count [9] was 2 of 6 and 3 of 6 and the survivor count [10] was 0 of 6. For the same compound, the survivor count [12] was 2 of 6 and the survivor count [4] was 0 of 6.
In the case of `CCCCCCCCCCCCc1ccc(/C(C)=N/NC(=O)c2ccc[n+](C)c2)cc1`, the survivor count (dose: 200.0 mg/kg/injection, schedule: Q01DX001 (ip), vehicle: saline with Tween-80) is reported as 0 of 6 and the survivor count (dose: 400.0 mg/kg/injection, schedule: Q01DX001 (ip), vehicle: saline with Tween-80) is reported as 0 of 6.
For `COc1ccc(CC#N)cc1`, the survivor count (dose: 20.0 mg/kg/injection, schedule: Q04DX002 (ip), vehicle: Klucel (hydroxypropylcellulose) (HPC)) was 3 of 3, the survivor count (dose: 40.0 mg/kg/injection, schedule: Q04DX002 (ip), vehicle: Klucel (hydroxypropylcellulose) (HPC)) was 1 of 3 and the survivor count [13] was 2 of 4. For the same compound, the survivor count [14] was 2 of 4, the survivor count [15] was 0 of 4 and the survivor count [16] was 0 of 4.
In the case of `O=C1C(c2c[nH]c3ccccc23)=Nc2ccc(Br)cc21`, the survivor count [16] is reported as 2 of 4.
In the case of `CC(O)C(N)C(=O)O` (stereo unspecified), the survivor count [17] is reported as 3 of 3 and the survivor count [2] is reported as 3 of 3.
For `Clc1ccc(/C=N/c2snc3ccccc23)c(Cl)c1`, the survivor count (dose: 100.0 mg/kg/injection, schedule: Q04DX002 (ip), vehicle: Klucel (hydroxypropylcellulose) (HPC)) was 3 of 3, the survivor count (dose: 200.0 mg/kg/injection, schedule: Q04DX002 (ip), vehicle: Klucel (hydroxypropylcellulose) (HPC)) was 0 of 3 and the survivor count (dose: 400.0 mg/kg/injection, schedule: Q04DX002 (ip), vehicle: Klucel (hydroxypropylcellulose) (HPC)) was 3 of 3.
`O=C1C=CC(=O)c2c(O)c(CBr)c(CBr)c(O)c21` was tested, and the survivor count (dose: 50.0 mg/kg/injection, schedule: Q01DX009 (ip), vehicle: water) was 2 of 6, the survivor count (dose: 100.0 mg/kg/injection, schedule: Q01DX009 (ip), vehicle: water) was 3 of 6 and the survivor count (dose: 200.0 mg/kg/injection, schedule: Q01DX009 (ip), vehicle: water) was 1 of 6. The survivor count (dose: 400.0 mg/kg/injection, schedule: Q01DX009 (ip), vehicle: water) was 0 of 6.
For `C[N+](C)(C)C1(c2ccc(F)cc2)CCCCC1`, the survivor count (dose: 40.0 mg/kg/injection, schedule: Q01DX001 (ip), vehicle: saline) was 0 of 4, the survivor count [13] was 0 of 4 and the survivor count (dose: 80.0 mg/kg/injection, schedule: Q01DX001 (ip), vehicle: saline) was 0 of 4. For the same compound, the survivor count [14] was 0 of 4, the survivor count [15] was 0 of 4 and the survivor count [16] was 0 of 4.
`CN(C)N=Nc1n[nH]nc1C(N)=O` was tested, and the T/C [11] was 147 % of control, the T/C [6] was 142 % of control and the T/C (dose: 269.0 mg/kg/injection, schedule: Q01DX009 (ip), vehicle: saline) was 132 % of control. For the same compound, the T/C (dose: 538.0 mg/kg/injection, schedule: Q01DX009 (ip), vehicle: saline) was 147 % of control.
`CN(C)c1ccc(/C(=N\O)c2cc[n+](C)cc2)cc1` was tested, and the survivor count (dose: 12.5 mg/kg/injection, schedule: Q01DX009 (ip), vehicle: saline) was 6 of 6, the survivor count [7] was 0 of 6 and the survivor count [8] was 0 of 6. The survivor count [9] was 0 of 6, the survivor count [11] was 0 of 6 and the survivor count [3] was 0 of 6.
In the case of `Cc1nn(CCO)c(C)c1N=[N+]([O-])c1c(C)nn(CCO)c1C`, the survivor count [8] is reported as 4 of 7, the survivor count (dose: 70.0 mg/kg/injection, schedule: Q01DX009 (ip), vehicle: saline) is reported as 4 of 7 and the survivor count [17] is reported as 6 of 6.
